Some of the results follow.
How the values were obtained:
Experiment in all cases: log2 fold change, soluble protein after heating vs DMSO (PISA); higher = thermal stabilisation; K562 lysate, 10 uM; active = over 0.2 and 3.5 SD of the protein, either way, in both replicates (recomputed)
lapatinib = compound: CS(=O)(=O)CCNCc1ccc(-c2ccc3ncnc(Nc4ccc(OCc5cccc(F)c5)c(Cl)c4)c3c2)o1 [lapatinib]
Outline: (§1)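 Quantification was by TMTpro 16plex LC-MS/MS with equalised channel sums, applied to the supernatant after 21,000xg for 90 min. Samples were crude K562 extract at 1 mg/mL protein in PBS pH 7.4 with 1 mM MgCl2, treated with 10 μM compound for 30 min, heated for 3 min across 48°C-58°C, pooled and brought to 0.5% NP-40 at 4°C. Values are log-two fold changes in thermal stability relative to solvent controls, from duplicates.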

By UniProt entry, the sequences of proteins in these tests, tags left out. Where a name states a change or a piece, a line headed by the entry shows the natural chain unless it says otherwise.
UniProt Q13371: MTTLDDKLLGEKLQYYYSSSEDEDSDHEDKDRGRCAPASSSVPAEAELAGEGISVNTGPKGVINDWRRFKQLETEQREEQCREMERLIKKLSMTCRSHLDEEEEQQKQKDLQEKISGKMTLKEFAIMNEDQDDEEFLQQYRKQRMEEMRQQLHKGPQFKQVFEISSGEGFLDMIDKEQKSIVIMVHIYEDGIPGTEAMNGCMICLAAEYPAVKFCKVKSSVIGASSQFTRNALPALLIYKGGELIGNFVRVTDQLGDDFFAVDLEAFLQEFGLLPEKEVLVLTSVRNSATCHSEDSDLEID
UniProt Q6P996: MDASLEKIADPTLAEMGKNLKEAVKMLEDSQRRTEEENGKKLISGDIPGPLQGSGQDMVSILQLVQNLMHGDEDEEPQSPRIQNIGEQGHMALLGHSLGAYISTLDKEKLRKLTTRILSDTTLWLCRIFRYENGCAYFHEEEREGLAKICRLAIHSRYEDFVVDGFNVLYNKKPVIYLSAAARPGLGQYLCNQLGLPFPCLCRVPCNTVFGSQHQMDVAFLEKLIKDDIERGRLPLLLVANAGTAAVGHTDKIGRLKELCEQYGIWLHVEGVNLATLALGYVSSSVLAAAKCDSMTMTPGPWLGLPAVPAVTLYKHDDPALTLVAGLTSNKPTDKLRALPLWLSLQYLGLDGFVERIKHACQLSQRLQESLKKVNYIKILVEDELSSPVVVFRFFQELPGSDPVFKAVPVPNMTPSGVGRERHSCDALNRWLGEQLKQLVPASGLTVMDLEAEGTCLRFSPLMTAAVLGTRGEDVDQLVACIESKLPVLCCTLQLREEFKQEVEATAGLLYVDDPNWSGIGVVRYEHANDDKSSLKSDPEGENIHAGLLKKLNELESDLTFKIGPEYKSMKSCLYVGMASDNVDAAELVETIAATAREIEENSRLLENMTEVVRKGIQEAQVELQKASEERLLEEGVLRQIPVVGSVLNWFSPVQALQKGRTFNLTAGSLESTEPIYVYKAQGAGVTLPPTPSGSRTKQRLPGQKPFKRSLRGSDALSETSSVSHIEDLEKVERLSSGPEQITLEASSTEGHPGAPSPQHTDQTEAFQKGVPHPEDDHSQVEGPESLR
UniProt P12004, whole entry, looked up: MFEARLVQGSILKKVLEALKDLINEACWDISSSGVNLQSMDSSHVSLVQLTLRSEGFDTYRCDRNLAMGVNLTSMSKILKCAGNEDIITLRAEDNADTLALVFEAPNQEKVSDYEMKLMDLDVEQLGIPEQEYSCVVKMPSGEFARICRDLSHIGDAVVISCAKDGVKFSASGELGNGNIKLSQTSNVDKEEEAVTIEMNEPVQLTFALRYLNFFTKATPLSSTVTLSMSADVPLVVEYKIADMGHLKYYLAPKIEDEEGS
UniProt Q8N5Y8: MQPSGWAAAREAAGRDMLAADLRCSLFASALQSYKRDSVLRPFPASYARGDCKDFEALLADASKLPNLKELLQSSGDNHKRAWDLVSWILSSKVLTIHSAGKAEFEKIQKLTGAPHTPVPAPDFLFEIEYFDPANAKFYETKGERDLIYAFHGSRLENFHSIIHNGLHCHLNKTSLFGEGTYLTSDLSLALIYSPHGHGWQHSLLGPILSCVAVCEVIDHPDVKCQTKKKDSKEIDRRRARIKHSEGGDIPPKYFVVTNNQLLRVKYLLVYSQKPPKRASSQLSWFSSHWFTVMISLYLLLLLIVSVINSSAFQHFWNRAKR
UniProt Q9BUL8: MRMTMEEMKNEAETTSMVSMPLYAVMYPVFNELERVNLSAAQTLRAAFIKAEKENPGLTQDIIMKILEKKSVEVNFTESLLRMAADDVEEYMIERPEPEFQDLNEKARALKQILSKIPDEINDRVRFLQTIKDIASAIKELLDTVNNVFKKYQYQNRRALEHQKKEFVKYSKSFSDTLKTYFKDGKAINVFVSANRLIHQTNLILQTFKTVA
UniProt Q8WW12: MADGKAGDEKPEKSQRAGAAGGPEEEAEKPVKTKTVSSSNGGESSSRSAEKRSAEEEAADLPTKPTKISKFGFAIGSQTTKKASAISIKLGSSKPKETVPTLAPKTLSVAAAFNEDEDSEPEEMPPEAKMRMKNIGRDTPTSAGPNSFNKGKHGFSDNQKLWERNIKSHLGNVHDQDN
UniProt P56645: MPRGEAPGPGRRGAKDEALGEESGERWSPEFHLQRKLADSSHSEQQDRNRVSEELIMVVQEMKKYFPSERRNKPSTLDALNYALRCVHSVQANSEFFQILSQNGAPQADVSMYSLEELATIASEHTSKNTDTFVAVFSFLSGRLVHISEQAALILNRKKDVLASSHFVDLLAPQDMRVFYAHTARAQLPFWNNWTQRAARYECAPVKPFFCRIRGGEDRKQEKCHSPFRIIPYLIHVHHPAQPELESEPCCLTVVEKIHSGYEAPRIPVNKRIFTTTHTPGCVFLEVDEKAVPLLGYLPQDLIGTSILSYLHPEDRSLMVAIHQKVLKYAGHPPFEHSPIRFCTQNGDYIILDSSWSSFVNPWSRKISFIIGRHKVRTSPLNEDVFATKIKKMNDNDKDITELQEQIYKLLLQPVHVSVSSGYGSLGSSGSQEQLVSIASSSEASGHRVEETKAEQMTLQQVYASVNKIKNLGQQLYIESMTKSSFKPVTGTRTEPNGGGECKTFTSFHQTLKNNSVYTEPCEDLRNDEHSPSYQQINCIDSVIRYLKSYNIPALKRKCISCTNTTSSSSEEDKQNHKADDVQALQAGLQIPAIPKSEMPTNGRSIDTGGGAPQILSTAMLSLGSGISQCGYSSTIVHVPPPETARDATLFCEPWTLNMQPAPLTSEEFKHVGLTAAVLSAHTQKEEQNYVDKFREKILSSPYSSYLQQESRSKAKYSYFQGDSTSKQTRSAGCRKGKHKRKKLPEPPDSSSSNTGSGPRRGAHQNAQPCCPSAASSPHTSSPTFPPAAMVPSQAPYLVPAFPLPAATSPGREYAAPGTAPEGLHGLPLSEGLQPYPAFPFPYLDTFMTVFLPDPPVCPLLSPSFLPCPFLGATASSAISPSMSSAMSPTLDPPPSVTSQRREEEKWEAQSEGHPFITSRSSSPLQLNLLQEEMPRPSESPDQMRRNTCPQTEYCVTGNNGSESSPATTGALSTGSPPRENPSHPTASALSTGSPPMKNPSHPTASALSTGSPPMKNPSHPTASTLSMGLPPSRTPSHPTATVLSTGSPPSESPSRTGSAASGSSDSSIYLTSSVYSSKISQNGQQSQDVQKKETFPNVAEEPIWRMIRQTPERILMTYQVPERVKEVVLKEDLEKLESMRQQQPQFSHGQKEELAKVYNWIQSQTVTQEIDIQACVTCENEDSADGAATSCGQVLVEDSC
UniProt P09874, whole entry, looked up: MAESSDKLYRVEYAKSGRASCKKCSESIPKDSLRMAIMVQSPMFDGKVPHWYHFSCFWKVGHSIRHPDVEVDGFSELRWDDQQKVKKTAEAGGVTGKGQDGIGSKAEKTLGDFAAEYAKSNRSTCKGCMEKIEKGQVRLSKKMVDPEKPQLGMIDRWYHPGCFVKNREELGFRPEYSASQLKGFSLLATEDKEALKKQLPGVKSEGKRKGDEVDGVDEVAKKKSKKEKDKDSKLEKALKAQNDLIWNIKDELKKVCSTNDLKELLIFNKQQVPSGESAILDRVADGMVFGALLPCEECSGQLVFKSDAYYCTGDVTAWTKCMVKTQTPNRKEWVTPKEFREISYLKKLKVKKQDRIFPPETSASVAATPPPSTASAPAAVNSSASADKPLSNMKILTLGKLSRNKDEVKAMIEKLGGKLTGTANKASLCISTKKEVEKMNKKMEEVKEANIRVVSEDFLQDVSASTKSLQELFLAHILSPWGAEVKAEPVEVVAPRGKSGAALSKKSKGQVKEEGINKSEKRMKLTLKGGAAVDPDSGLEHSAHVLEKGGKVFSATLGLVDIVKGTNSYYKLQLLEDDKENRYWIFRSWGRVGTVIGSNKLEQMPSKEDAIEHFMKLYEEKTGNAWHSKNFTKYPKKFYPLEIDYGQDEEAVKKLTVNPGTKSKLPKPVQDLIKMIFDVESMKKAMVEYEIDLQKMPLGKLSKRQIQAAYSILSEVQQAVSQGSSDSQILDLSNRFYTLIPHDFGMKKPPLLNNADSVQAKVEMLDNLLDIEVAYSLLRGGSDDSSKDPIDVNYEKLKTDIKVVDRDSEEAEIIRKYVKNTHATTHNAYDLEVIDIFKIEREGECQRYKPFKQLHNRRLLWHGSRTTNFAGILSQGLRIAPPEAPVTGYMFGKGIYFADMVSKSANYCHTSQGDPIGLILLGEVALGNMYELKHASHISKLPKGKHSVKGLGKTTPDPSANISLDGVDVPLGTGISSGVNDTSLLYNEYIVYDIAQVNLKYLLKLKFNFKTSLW
UniProt Q9UKL6: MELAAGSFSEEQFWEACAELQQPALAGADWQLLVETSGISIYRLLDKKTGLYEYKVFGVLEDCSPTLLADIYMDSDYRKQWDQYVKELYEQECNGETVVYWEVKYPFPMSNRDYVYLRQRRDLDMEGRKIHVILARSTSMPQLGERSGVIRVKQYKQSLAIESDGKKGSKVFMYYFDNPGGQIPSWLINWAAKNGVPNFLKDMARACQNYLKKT
UniProt O00330, whole entry, looked up: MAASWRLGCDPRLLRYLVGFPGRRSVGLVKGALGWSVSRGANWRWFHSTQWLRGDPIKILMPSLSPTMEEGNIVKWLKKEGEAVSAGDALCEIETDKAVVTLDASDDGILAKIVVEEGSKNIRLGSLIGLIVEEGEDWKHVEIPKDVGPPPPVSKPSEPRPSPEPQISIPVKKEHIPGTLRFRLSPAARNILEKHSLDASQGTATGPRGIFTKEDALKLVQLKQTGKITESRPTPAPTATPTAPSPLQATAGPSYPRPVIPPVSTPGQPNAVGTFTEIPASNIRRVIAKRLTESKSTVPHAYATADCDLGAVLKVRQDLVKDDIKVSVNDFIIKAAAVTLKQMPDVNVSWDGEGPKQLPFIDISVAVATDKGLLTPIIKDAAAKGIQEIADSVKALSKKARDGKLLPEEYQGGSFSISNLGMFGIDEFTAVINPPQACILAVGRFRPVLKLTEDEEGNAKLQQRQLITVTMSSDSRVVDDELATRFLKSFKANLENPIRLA
UniProt Q9BVG4: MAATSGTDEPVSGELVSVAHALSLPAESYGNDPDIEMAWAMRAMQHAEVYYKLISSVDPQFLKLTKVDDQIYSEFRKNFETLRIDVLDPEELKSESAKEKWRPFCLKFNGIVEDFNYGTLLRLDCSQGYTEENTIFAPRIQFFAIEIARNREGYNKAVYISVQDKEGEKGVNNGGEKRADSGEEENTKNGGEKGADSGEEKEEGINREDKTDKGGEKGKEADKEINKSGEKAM
UniProt Q8IZL8: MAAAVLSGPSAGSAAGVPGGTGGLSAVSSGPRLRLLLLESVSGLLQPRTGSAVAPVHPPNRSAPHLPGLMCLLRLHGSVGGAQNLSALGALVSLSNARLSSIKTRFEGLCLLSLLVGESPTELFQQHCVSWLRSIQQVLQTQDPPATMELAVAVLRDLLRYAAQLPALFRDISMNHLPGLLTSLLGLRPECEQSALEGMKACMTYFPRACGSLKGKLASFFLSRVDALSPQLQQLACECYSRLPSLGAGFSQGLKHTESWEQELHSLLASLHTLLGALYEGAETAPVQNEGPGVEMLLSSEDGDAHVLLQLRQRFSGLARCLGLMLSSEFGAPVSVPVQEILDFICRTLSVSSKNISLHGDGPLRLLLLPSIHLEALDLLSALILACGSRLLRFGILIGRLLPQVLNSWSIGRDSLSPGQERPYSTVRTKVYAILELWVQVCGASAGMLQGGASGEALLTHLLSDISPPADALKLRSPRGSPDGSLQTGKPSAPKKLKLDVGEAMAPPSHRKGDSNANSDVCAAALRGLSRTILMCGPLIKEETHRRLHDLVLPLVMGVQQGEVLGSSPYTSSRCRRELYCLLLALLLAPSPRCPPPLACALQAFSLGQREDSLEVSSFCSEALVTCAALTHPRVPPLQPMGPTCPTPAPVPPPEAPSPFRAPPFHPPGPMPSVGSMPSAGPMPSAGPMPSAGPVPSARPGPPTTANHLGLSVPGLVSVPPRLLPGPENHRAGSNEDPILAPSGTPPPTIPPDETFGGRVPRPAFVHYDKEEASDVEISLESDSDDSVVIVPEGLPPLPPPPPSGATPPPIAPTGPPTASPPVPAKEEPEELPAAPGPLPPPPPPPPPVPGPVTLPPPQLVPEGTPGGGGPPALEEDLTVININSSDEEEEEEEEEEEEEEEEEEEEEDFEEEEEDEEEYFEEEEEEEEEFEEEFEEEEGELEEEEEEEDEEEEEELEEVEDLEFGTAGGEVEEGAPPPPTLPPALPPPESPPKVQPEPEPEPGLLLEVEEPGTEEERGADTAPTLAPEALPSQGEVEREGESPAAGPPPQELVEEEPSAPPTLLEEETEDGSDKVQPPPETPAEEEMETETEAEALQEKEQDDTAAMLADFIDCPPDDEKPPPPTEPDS
UniProt Q9HBH1: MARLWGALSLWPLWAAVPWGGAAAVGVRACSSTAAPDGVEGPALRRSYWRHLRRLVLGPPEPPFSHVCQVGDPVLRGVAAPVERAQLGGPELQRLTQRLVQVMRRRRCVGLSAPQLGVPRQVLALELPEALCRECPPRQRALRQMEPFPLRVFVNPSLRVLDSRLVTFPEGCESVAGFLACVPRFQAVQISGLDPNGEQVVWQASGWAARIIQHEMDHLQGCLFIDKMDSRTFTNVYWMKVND

pictilisib = compound: CS(=O)(=O)N1CCN(Cc2cc3nc(-c4cccc5[nH]ncc45)nc(N4CCOCC4)c3s2)CC1 [pictilisib]
Outline: as §1

crizotinib = compound: C[C@@H](Oc1cc(-c2cnn(C3CCNCC3)c2)cnc1N)c1c(Cl)ccc(F)c1Cl [crizotinib]
Outline: as §1

[1] = compound: C[C@H](C1=CC=C(C=C1)C(=O)NC2=C3C=CNC3=NC=C2)N
Outline: as §1

duvelisib = compound: C[C@H](Nc1ncnc2nc[nH]c12)c1cc2cccc(Cl)c2c(=O)n1-c1ccccc1 [duvelisib]
Outline: as §1

gandotinib = compound: Cc1cc(Nc2cc(CN3CCOCC3)c3nc(C)c(Cc4ccc(Cl)cc4F)n3n2)n[nH]1 [gandotinib]
Outline: as §1

tozasertib = compound: Cc1cc(Nc2cc(N3CCN(C)CC3)nc(Sc3ccc(NC(=O)C4CC4)cc3)n2)n[nH]1 [tozasertib]
Outline: as §1

doramapimod = compound: Cc1ccc(-n2nc(C(C)(C)C)cc2NC(=O)Nc2ccc(OCCN3CCOCC3)c3ccccc23)cc1 [doramapimod]
Outline: as §1

bafetinib = compound: Cc1ccc(NC(=O)c2ccc(CN3CC[C@H](N(C)C)C3)c(C(F)(F)F)c2)cc1Nc1nccc(-c2cncnc2)n1 [bafetinib]
Outline: as §1

[2] = compound: Cc1cccc(CC(=O)N2CCc3c2ccc(-c2cn(C)c4ncnc(N)c24)c3F)n1
Outline: as §1

Measured: log2 fold change

PARS2 (UniProt Q7L3T8)
inactive: lapatinib -0.028 | pictilisib -0.017 | crizotinib -0.026 | [1] 0.025 | duvelisib 0.036 | gandotinib -0.031 | tozasertib 0.018 | doramapimod 0.007 | bafetinib 0.073 | [2] -0.03

PDCL (UniProt Q13371)
inactive: lapatinib 0.013 | pictilisib 0.016 | crizotinib -0.014 | [1] -0.009 | duvelisib -0.02 | gandotinib -0.001 | tozasertib -0.027 | doramapimod -0.002 | bafetinib -0.039 | [2] 0.044

PDXDC1 (UniProt Q6P996)
inactive: lapatinib -0.025 | pictilisib -0.019 | crizotinib -0.056 | [1] -0.011 | duvelisib 0.019 | gandotinib 0 | tozasertib 0.01 | doramapimod 0.007 | bafetinib -0.128 | [2] 0.062

PCNA (UniProt P12004)
inactive: lapatinib -0.003 | pictilisib -0.005 | crizotinib 0.023 | [1] -0.063 | duvelisib 0.003 | gandotinib 0.026 | tozasertib 0.027 | doramapimod -0.003 | bafetinib 0.03 | [2] 0.084

PEF1 (UniProt Q9UBV8)
inactive: lapatinib 0.019 | pictilisib 0.041 | crizotinib -0.002 | [1] 0.051 | duvelisib -0.004 | gandotinib -0.055 | tozasertib 0.032 | doramapimod -0.01 | bafetinib -0.027 | [2] 0.051

PARP16 isoform 3 (UniProt Q8N5Y8)
inactive: lapatinib -0.035 | pictilisib -0.04 | crizotinib -0.037 | [1] 0.015 | duvelisib 0.012 | gandotinib 0.085 | tozasertib -0.052 | doramapimod -0.025 | bafetinib 0.078 | [2] 0.095

PDCD10 (UniProt Q9BUL8)
active: [1] -0.254
inactive: lapatinib -0.016 | pictilisib -0.014 | crizotinib -0.005 | duvelisib -0.007 | gandotinib 0.112 | tozasertib 0.023 | doramapimod -0.013 | bafetinib -0.033 | [2] 0.031

PDIA5 (UniProt Q14554)
inactive: lapatinib -0.004 | pictilisib -0.019 | crizotinib -0.011 | [1] 0.012 | duvelisib 0.004 | gandotinib 0.027 | tozasertib 0.013 | doramapimod 0.039 | bafetinib -0.01 | [2] 0.003

PCNP (UniProt Q8WW12)
inactive: lapatinib 0.004 | pictilisib -0.001 | crizotinib 0.012 | [1] -0.103 | duvelisib -0.022 | gandotinib 0.089 | tozasertib -0.056 | doramapimod -0.095 | bafetinib 0.039 | [2] 0.062

PER3 isoform 2 (UniProt P56645)
inactive: lapatinib 0.019 | pictilisib -0.069 | crizotinib 0.04 | [1] -0.014 | duvelisib -0.058 | gandotinib -0.019 | tozasertib 0.066 | doramapimod -0.036 | bafetinib 0.005 | [2] -0.071

PGD (UniProt K7EPF6)
inactive: lapatinib -0.158 | pictilisib -0.414 | crizotinib -0.163 | doramapimod 0.045 | bafetinib -0.412

PAXX (UniProt Q9BUH6)
inactive: lapatinib -0.015 | pictilisib -0.015 | crizotinib -0.007 | [1] -0.017 | duvelisib 0.016 | gandotinib 0.035 | tozasertib 0.023 | doramapimod 0.007 | bafetinib 0.002 | [2] -0.017

PARP12 (UniProt Q9H0J9)
inactive: lapatinib -0.052 | pictilisib -0.028 | crizotinib -0.182 | duvelisib -0.062 | tozasertib -0.043 | doramapimod -0.048 | bafetinib -0.077

PARP1 (UniProt P09874)
inactive: lapatinib -0.011 | pictilisib 0.018 | crizotinib 0.006 | [1] 0.023 | duvelisib -0.006 | gandotinib -0.098 | tozasertib 0.019 | doramapimod -0.019 | bafetinib -0.011 | [2] -0.039

PCYT2 isoform 3 (UniProt Q99447)
inactive: lapatinib -0.025 | pictilisib -0.011 | crizotinib -0.06 | [1] -0.057 | duvelisib 0.027 | gandotinib 0.143 | tozasertib 0.03 | doramapimod 0.031 | bafetinib -0.046 | [2] 0.018

PCTP (UniProt Q9UKL6)
inactive: lapatinib -0.011 | pictilisib 0.021 | crizotinib -0.032 | [1] -0.096 | duvelisib -0.056 | gandotinib 0.052 | tozasertib 0.017 | doramapimod -0.033 | bafetinib -0.018 | [2] 0.15

PFN1 (UniProt I3L3D5)
active: [1] 0.524
inactive: lapatinib 0.066 | pictilisib -0.062 | gandotinib -0.15 | tozasertib -0.051 | bafetinib -0.19 | [2] 0.015

PDE12 (UniProt Q6L8Q7)
inactive: lapatinib -0.009 | pictilisib 0.021 | crizotinib 0.016 | [1] 0.022 | duvelisib -0.015 | gandotinib 0.017 | tozasertib -0.018 | doramapimod -0.037 | bafetinib -0.037 | [2] -0.015

PAXBP1 (UniProt Q9Y5B6)
inactive: lapatinib 0.002 | pictilisib -0.077 | crizotinib -0.027 | [1] -0.037 | duvelisib -0.008 | gandotinib -0.029 | tozasertib 0.012 | doramapimod 0.038 | bafetinib -0.024 | [2] 0.002

PDHX (UniProt O00330)
inactive: lapatinib -0.034 | pictilisib -0.026 | crizotinib 0.024 | [1] 0 | duvelisib 0 | gandotinib -0.047 | tozasertib -0.01 | doramapimod -0.012 | bafetinib -0.001 | [2] -0.046

PBDC1 (UniProt Q9BVG4)
inactive: lapatinib 0.007 | pictilisib -0.026 | crizotinib 0.045 | [1] 0.002 | duvelisib 0.01 | gandotinib -0.011 | tozasertib 0.015 | doramapimod 0 | bafetinib -0.035 | [2] -0.045

PECAM1 (UniProt P16284)
inactive: lapatinib 0.01 | pictilisib -0.032 | crizotinib -0.011 | [1] -0.018 | duvelisib 0.026 | gandotinib 0.108 | tozasertib 0.022 | doramapimod -0.016 | bafetinib -0.061 | [2] 0.025

PDE6D (UniProt O43924)
inactive: lapatinib 0.016 | pictilisib -0.24 | [1] -0.035 | duvelisib -0.024 | gandotinib -0.008 | tozasertib 0.055 | bafetinib 0.014 | [2] 0.059

PELP1 (UniProt Q8IZL8)
inactive: lapatinib -0.026 | pictilisib 0.015 | crizotinib -0.042 | [1] 0.115 | duvelisib -0.004 | gandotinib -0.053 | tozasertib -0.003 | doramapimod 0.001 | bafetinib -0.036 | [2] -0.044

PDF (UniProt Q9HBH1)
inactive: lapatinib 0.027 | pictilisib -0.016 | crizotinib -0.067 | [1] 0.018 | duvelisib -0.076 | gandotinib -0.019 | tozasertib 0.029 | doramapimod 0.027 | bafetinib -0.162 | [2] 0.025

PEX2 (UniProt P28328)
inactive: lapatinib -0.081 | pictilisib 0.035 | crizotinib -0.041 | [1] -0.04 | duvelisib -0.031 | gandotinib 0.096 | doramapimod -0.151 | bafetinib -0.218 | [2] 0.149

PARP9 (UniProt Q8IXQ6)
inactive: lapatinib -0.05 | pictilisib -0.023 | crizotinib -0.224 | duvelisib -0.01 | tozasertib -0.052 | doramapimod 0.043 | bafetinib 0.224

Random excerpt: two records from the list, in no set order.
PEX2 (UniProt P28328)
inactive: lapatinib -0.081 | pictilisib 0.035 | crizotinib -0.041 | [1] -0.04 | duvelisib -0.031 | gandotinib 0.096 | doramapimod -0.151 | bafetinib -0.218 | [2] 0.149

PARP9 (UniProt Q8IXQ6)
inactive: lapatinib -0.05 | pictilisib -0.023 | crizotinib -0.224 | duvelisib -0.01 | tozasertib -0.052 | doramapimod 0.043 | bafetinib 0.224

Additional records follow.

PFDN5 (UniProt Q99471)
inactive: lapatinib 0.04 | pictilisib 0.004 | crizotinib 0.004 | [1] 0.114 | duvelisib 0.018 | gandotinib -0.1 | tozasertib 0.034 | doramapimod -0.005 | bafetinib 0.043 | [2] -0.124

PFDN1 (UniProt O60925)
inactive: lapatinib 0.088 | pictilisib -0.039 | crizotinib 0.056 | [1] 0.12 | duvelisib 0.006 | gandotinib -0.121 | tozasertib 0.032 | doramapimod -0.013 | bafetinib -0.034 | [2] -0.132

PFDN2 (UniProt Q9UHV9)
inactive: lapatinib -0.001 | pictilisib -0.017 | crizotinib 0.054 | duvelisib 0 | gandotinib -0.1 | tozasertib 0.053 | doramapimod 0.005 | bafetinib -0.064 | [2] -0.13
active: [1] 0.365

PFAS (UniProt O15067)
inactive: lapatinib -0.01 | pictilisib -0.011 | crizotinib -0.067 | [1] -0.011 | duvelisib -0.009 | gandotinib 0.002 | tozasertib -0.008 | doramapimod 0.035 | bafetinib -0.028 | [2] 0.019

From the supplement of paper PMC10849652
